In article PMC6246682, “Structural Basis of Tau Interaction With BIN1 and Regulation by Tau Phosphorylation” (Frontiers in Molecular Neuroscience, 2018):
No constants are given. Whether binding was seen depends on the method and setting.

Molecular target: T1, BIN1 SH3 domain, O00499
T1 chain: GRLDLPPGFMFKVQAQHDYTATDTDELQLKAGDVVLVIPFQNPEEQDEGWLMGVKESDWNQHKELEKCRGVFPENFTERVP
Experiment: 15N NMR relaxation (R1, R2, correlation time); 15N-labeled BIN1 SH3 0.12 mM, alone and with Tau (210–240) at 1:8 molar ratio; 293K, 600 MHz; both purified
Conditions: remark: other sources report otherwise

binding: no binding (tested: 0.12 mM)
B1: BIN1 SH3 domain, O00499 513-593 (domain or fragment)
chain: GRLDLPPGFMFKVQAQHDYTATDTDELQLKAGDVVLVIPFQNPEEQDEGWLMGVKESDWNQHKELEKCRGVFPENFTERVP
